Experimental data: patent EP0094815B1, “Oligopeptide prodrugs” (SMITHKLINE BECKMAN CORPORATION, priority 1982, dated 1983)
At least one compound was matched to its structure with a doubt left. Some results were stated once for a whole list of compounds, not compound by compound.

Columns and labels:
[1] = Stability of a-substituted glycine peptides in aqueous buffer (Ellman colorimetric assay); assay type: physicochemical; conditions: pH 7.5
Leucine Aminopeptidase = assay: Enzyme catalyzed warhead release (Ellman colorimetric assay); assay type: biochemical, hog; conditions: for enzymatically catalyzed release rate: pH 7.5, relative to pH 7.0
Method: In each case upon addition of the enzyme, Leucine Aminopeptidase, the warhead was released. The release was maintained at a linear rate over the observation period (5 min). […] These observations are consistent with literature reports of the optimal pH necessary for the efficacy of this enzyme. These observations were obtained by colorimetric assay, which involves the reaction between a free sulfhydryl group and 5,5'-dithio-bis(2-nitrobenzoic acid), the Ellman reagent, to produce a yellow color as follows: [drawing 44] The peptide from Example 4 was dissolved in 4 mM of phosphate buffer solution (pH 7) containing the Ellman reagent at a level of 4 mg/ml to produce a 1 mM solution of the peptide. The resulting mixture was monitored using a spectrophotometer at a wavelength of 412 nm. To 1 ml of this solution was added 100 µg of hog kidney leucine aminopeptidase (Sigma) and the enzymatic hydrolysis was continuously monitored at 412 nm.

Structure (SMILES) | non-enzymatic warhead release [1] | warhead release upon addition of the enzyme (Leucine Aminopeptidase; pH 7.0, linear rate over the observation period (5 min)) | enzymatically catalyzed release rate (Leucine Aminopeptidase)
C[C@H](N)C(=O)NC(Sc1ccccc1)C(=O)O (stereo partly drawn) [Example 13, L-alanyl-2-(thiophenyl)-D,L-glycine] | no noticeable increases | released | twice the previous rate
C[C@H](N)C(=O)NC(SCCNc1cc(C(=O)O)nc(C(=O)O)c1)C(=O)O (stereo partly shown) [Example 4] |  |  | twice the previous rate
